From PubChem BioAssay AID720534 (National Center for Advancing Translational Sciences (NCATS), 2013)
The campaign covered roughly 1,600 compounds. About 990 (62%) were called active. The set was probably picked from earlier hits. The inconclusive results got no clear call from the source; some entries with a clear call stand among them for comparison. Calls follow the shape of the dose curve; as a rule, active = well fitted inhibition curve with a large enough effect; inconclusive = small, poorly fitted or top-dose-only effect; inactive = no such curve, though single readings can be large or run the other way. Potencies of inconclusive entries are doubtful fits and often do not repeat.

Experiment: qHTS for Inhibitors of TGF-b: Confirmation of Cherry Picks; also: nearly all actives have a fitted effect of over 65% in size
Details: HepG2 CAGA-GFP TGF-b reporter, GFP fluorescence, 18 h, cells stimulated with TGF-beta, 500 pg/mL; activity, negative = inhibition: at 46.1 µM (top of the series)
Method in brief: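 HEPG2 CAGA-GFP reporter cells (1000/well, DMEM 1% FBS) given compound then TGF-beta at 500 pg/mL final for 18 hours at 37 degrees C. Per-cell GFP summed per well; normalized to unstimulated and stimulated DMSO wells, curves fitted.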
% is scaled to controls: 0 for no effect and ±100 for the full control effect; potency is read from the fitted curve at half-maximal effect.

| Structure (SMILES) | activity, negative = inhibition | Potency |
| --- | --- | --- |
| CCC(=O)NC(c1ccc(OC)cc1)c1cc(Cl)c2cccnc2c1O (centres undefined) | inactive: -24% |  |
| O=C(c1ccc2c3c(cccc13)CC2)C1CCCN(Cc2ccncc2)C1 (centres undefined) | inactive: -29.3% |  |
| NC(=O)CC(NC(=O)Cc1ccc(Br)cc1)c1ccc(N2CCN(c3ccccn3)CC2)c([N+](=O)[O-])c1 (centres undefined) |  | inconclusive: 29.1 µM [inhibitor, single point] |
| Cc1cc(C)cc(Oc2coc3cc(OC(=O)c4cccs4)ccc3c2=O)c1 |  | inconclusive: 29.1 µM [inhibitor, single point] |
| COc1ccc(CNC(=O)c2cccc(-c3ccc(C)c4ccccc34)n2)cc1 |  | inconclusive: 29.1 µM [inhibitor, single point] |
| COc1ccc(Nc2nc(-c3ccccc3)nc3ccccc23)cc1 |  | inconclusive: 20.6 µM [inhibitor, single point] |
| Cc1ccc(CNc2ccc(O)cc2)cc1 |  | active: 23.1 µM |
| O=C(C1CCC(CNS(=O)(=O)c2cccc3nsnc23)CC1)N1CC=C(c2ccccc2)CC1 (centres undefined) |  | inconclusive: 20.6 µM [inhibitor, single point] |
| COc1cc(OC)cc(C(=O)N[C@H](C(=O)OCc2cc(=O)oc3cc(C)ccc23)C(C)C)c1 |  | inconclusive: 14.6 µM [inhibitor, partial curve] |
| COc1ccc(-c2cc3nc(NCC4CCCCC4)n(C)c(=O)c3s2)cc1OC |  | inconclusive: 29.1 µM [inhibitor, single point] |
| COc1ccc(C(CCNCc2ccc(F)cc2)c2ccc(F)cc2)cc1 (centres undefined) |  | inconclusive: 29.1 µM [inhibitor, single point] |
| C=CCNc1ncnc2c1ncn2C1OC(CO)C(O)C1O (centres undefined) |  | active: 10.3 µM |
| CCN(C(=O)c1cc2c(C)nc3ccccc3c2o1)c1cc(Cl)ccc1OC |  | inconclusive: 23.1 µM [inhibitor, single point] |
| O=C(Nc1cccc2ccccc12)c1ccc([N+](=O)[O-])s1 |  | active: 16.4 µM |
| CCn1c(=O)c(C(=O)Nc2nc3ccccc3[nH]2)c(O)c2ccccc21 | inactive: -24.7% |  |
| COc1ccc(C(=O)c2c3ccc([N+](=O)[O-])cc3[n+]([O-])n2CCCN)cc1 |  | active: 18.4 µM |
| Cc1nn(-c2ccc(F)cc2)c(C)c1NS(=O)(=O)c1ccc2ccccc2c1 |  | inconclusive: 23.1 µM [inhibitor, single point] |
| Cn1nnnc1SC(C(=O)Nc1cccc(C(F)(F)F)c1)c1ccccc1 (centres undefined) |  | inconclusive: 29.1 µM [inhibitor, single point] |
| Cc1ccc(C(=O)CSc2cc(C)nc(SCC(=O)c3ccccc3)n2)cc1 |  | inconclusive: 20.6 µM [inhibitor, single point] |
| Cc1ccc(CNc2nc(NCc3ccccc3)nc3ccsc23)c(C)c1 |  | inconclusive: 25.9 µM [inhibitor, single point] |

A different layout for part of the listing above.
Structure (SMILES) | activity, negative = inhibition | Potency
CCC(=O)NC(c1ccc(OC)cc1)c1cc(Cl)c2cccnc2c1O (centres undefined) | inactive: -24% | 
O=C(c1ccc2c3c(cccc13)CC2)C1CCCN(Cc2ccncc2)C1 (centres undefined) | inactive: -29.3% | 
NC(=O)CC(NC(=O)Cc1ccc(Br)cc1)c1ccc(N2CCN(c3ccccn3)CC2)c([N+](=O)[O-])c1 (centres undefined) |  | inconclusive: 29.1 µM [inhibitor, single point]
Cc1cc(C)cc(Oc2coc3cc(OC(=O)c4cccs4)ccc3c2=O)c1 |  | inconclusive: 29.1 µM [inhibitor, single point]
COc1ccc(CNC(=O)c2cccc(-c3ccc(C)c4ccccc34)n2)cc1 |  | inconclusive: 29.1 µM [inhibitor, single point]
COc1ccc(Nc2nc(-c3ccccc3)nc3ccccc23)cc1 |  | inconclusive: 20.6 µM [inhibitor, single point]
Cc1ccc(CNc2ccc(O)cc2)cc1 |  | active: 23.1 µM
O=C(C1CCC(CNS(=O)(=O)c2cccc3nsnc23)CC1)N1CC=C(c2ccccc2)CC1 (centres undefined) |  | inconclusive: 20.6 µM [inhibitor, single point]
COc1cc(OC)cc(C(=O)N[C@H](C(=O)OCc2cc(=O)oc3cc(C)ccc23)C(C)C)c1 |  | inconclusive: 14.6 µM [inhibitor, partial curve]

Further records:

| Structure (SMILES) | activity, negative = inhibition | Potency |
| --- | --- | --- |
| C=CCC[C@@H](Cc1ccc(F)cc1)C(=O)OC[C@@H](NC(=O)[C@@H](CC=C)CC(=O)N(CCO)Cc1ccccc1)c1ccccc1 |  | active: 14.6 µM |
| O=[N+]([O-])c1c(NCCCO)cc(Sc2nc3ccccc3s2)c2nonc12 |  | inconclusive: 7.31 µM [inhibitor, partial curve] |
| CN(c1ccccc1)S(=O)(=O)c1ccc(C(=O)N2CCN(c3ccccc3Cl)CC2)cc1 |  | active: 5.8 µM |
| C[C@H](CO)N1C[C@H](C)[C@@H](CN(C)C(=O)Nc2ccc(C(F)(F)F)cc2)Oc2ccc(NS(=O)(=O)c3ccccc3)cc2C1=O |  | inconclusive: 29.1 µM [inhibitor, single point] |
| COc1ccc(NC(=O)N(C)C[C@H]2Oc3c(NC(=O)c4nc5ccccc5s4)cccc3C(=O)N([C@@H](C)CO)C[C@H]2C)cc1 |  | inconclusive: 23.1 µM [inhibitor, single point] |
| Nc1cc2[nH]c(=O)c3ccccc3c2cc1Br |  | inconclusive: 7.31 µM [inhibitor, partial curve] |
| Cc1ccc(Nc2nc(-c3ccncc3)nc3ccccc23)cc1 | inactive: 5.06% |  |
| Cc1ccc(S(=O)(=O)N2CC=C(c3ccc(F)cc3)CC2)cc1 |  | inconclusive: 18.4 µM [inhibitor, single point] |
| COc1ccc(C(=O)C(CN2CCOCC2)c2ccccc2)cc1F (centres undefined) |  | inconclusive: 29.1 µM [inhibitor, single point] |
| Cc1nnc(SCC(=O)N/N=C/c2cn(-c3ccccc3)nc2-c2ccccc2)n1-c1ccccc1 |  | inconclusive: 20.6 µM [inhibitor, single point] |
| Cc1cc(C)cc(NC(=O)Cn2c(=O)oc3cc(S(=O)(=O)N4CCC(C)CC4)ccc32)c1 |  | inconclusive: 20.6 µM [inhibitor, single point] |
| COc1ccc([C@H]2CC(=O)C=C(c3ccc(Cl)c(C(F)(F)F)c3)C2)cc1 |  | inconclusive: 29.1 µM [inhibitor, single point] |
| CCCC[C@H]1COCCS(=O)(=O)N1Cc1ccc(Br)cc1 |  | inconclusive: 18.4 µM [inhibitor, single point] |
| CCN(CC)c1ccc(Nc2nc(N3CCOCC3)c3ccccc3n2)cc1 |  | inconclusive: 23.1 µM [inhibitor, single point] |
| COc1cccc(CNc2nc3cc(-c4ccsc4)sc3c(=O)n2C)c1OC |  | inconclusive: 1.84 µM [inhibitor, full curve, poor fit] |
| CCN(CC)C(=O)[C@H]1C[C@H](CC(=O)NCc2cccc(C(F)(F)F)c2)C(=O)N2CCc3c([nH]c4ccc(Cl)cc34)[C@]12C |  | inconclusive: 20.6 µM [inhibitor, single point] |
| Cc1cccc(CNc2ccc(C(CC(N)=O)NC(=O)Cc3cccc4ccccc34)cc2[N+](=O)[O-])c1 (centres undefined) |  | inconclusive: 16.4 µM [inhibitor, single point] |
| O=[N+]([O-])c1cccc(NC(=S)Nc2nc(-c3ccccc3Cl)cs2)c1 |  | active: 3.66 µM |
| C[C@@H]1CCCCO[C@H](CN(C)Cc2ccc(Cl)c(Cl)c2)[C@H](C)CN([C@@H](C)CO)C(=O)c2cc(NC(=O)Nc3ccc(F)cc3)ccc2O1 |  | active: 5.8 µM |
